Assay results reported in publication PMC3823977.
Substitutions are numbered along the chain they refer to. These are yes or no findings as the source states them, for the method shown. Some entries that bind do so weakly or less than the wild type. Where a sequence is shown, tags or fusion partners need not be part of it.

Sequences of proteins named here, by UniProt entry; tags and fusion partners are left off. Residues count along the entry.
UniProt Q13569, residues 74-410: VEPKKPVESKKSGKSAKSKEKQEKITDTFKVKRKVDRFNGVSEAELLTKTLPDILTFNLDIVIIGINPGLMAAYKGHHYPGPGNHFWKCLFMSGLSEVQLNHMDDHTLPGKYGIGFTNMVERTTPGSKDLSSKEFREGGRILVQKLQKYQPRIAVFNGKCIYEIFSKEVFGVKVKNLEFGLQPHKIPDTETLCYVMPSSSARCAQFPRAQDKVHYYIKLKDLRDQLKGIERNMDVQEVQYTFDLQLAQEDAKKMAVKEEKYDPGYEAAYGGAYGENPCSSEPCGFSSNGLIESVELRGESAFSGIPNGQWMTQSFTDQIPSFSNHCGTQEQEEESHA
UniProt Q12873, residues 1852-2000: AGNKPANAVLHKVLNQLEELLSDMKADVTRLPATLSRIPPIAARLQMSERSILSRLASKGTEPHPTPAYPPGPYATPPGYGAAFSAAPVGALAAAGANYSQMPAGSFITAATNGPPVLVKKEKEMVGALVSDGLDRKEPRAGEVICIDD
UniProt Q06265, residues 158-439: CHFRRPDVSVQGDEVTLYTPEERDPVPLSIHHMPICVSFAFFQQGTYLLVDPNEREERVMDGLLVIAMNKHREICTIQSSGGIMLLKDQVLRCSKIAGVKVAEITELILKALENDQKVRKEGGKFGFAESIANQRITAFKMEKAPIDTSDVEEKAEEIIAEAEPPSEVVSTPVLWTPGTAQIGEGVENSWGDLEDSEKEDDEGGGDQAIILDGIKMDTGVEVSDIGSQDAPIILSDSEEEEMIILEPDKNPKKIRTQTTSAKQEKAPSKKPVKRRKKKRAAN

Key:
Experiment in all cases: two-hybrid; yeast, Matchmaker GAL4 system; senataxin 1–650 baits in pGBKT7-BD, human brain library preys in pGADT7-Rec; library screens by mating, retest by mating and by co-transformation with patching of serial dilutions on Leu-/Trp-/His- medium with 3 mM 3-AT
[1] = molecular target: T1, BD-SETX-W305C, senataxin amino-terminal bait with the AOA2 mutation W305C (human) (UniProt Q7Z333)
T1 sequence: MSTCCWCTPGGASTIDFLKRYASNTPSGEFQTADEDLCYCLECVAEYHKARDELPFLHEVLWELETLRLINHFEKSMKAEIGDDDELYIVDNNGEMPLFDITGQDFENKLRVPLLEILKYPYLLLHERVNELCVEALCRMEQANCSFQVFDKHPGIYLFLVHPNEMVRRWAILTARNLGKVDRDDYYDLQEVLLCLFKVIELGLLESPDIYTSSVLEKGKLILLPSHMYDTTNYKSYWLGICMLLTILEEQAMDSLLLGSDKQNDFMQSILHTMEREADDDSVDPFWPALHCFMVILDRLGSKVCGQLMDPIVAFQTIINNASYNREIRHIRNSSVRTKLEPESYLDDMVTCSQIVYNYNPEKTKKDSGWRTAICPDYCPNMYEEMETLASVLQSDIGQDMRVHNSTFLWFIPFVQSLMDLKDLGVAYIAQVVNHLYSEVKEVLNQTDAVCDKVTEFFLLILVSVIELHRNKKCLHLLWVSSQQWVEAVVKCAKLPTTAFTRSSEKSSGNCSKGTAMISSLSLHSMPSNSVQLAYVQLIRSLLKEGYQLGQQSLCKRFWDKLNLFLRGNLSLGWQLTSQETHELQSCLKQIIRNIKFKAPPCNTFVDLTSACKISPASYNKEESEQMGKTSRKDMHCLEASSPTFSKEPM

[2] = molecular target: T2, BD-SETX-wt, wild type senataxin residues 1–650 as yeast two-hybrid bait (human) (UniProt Q7Z333)
T2 sequence: T1 sequence with C305W

[3] = molecular target: T3, BD-SETX-L389S, senataxin residues 1–650 with the ALS4 L389S mutation as yeast two-hybrid bait (human) (UniProt Q7Z333)
T3 sequence: T1 sequence with C305W, L389S

Measured: binding

TDG, G/T mismatch-thymine DNA glycosylase, library prey clone (74–411 ter) (from UniProt Q13569 74-410) (domain or fragment)
binds: all assays above

CHD3, chromodomain helicase DNA-binding protein 3, library prey clone (1818–1967) (from UniProt Q12873-2 1818-1966) (domain or fragment)
binds: all assays above

Sumo, small ubiquitin-like modifier, library prey clone (1–102 tot) (from UniProt P63165-1 1-101)
binds: all assays above

EXOSC9, exosome component 9, library prey clone (158–440 ter) (from UniProt Q06265-1 158-439) (domain or fragment)
binds: all assays above
